Among the data in patent publication US4487765 (dated 1984) are step yield values, retold here.

The nature of this series: general procedure: solution-phase peptide synthesis; DCC/HOBt. As to conditions: acetate (Dowex 2X-8 exchange).

For the substance H-Cys(Trt)-Pro-Arg(Mbs)-Gly-NH2, the step yield (late stage modification step) is 89%. Trt-Cys(Trt)-Pro-Arg(Mbs)-Gly-NH2: the step yield (coupling step) is given as 96%.

For the setting “late stage modification step”, Z-Gln-Asn-Cys(Scm)-Pro-Arg-Gly-NH2 returned a step yield of 57%. Substance Z-Gln-Asn-Cys(Trt)-Pro-Arg(Mbs)-Gly-NH2 displayed a step yield (coupling step) of 80.8%.
